In the supplement of paper PMC10849652:
The other results are listed elsewhere or left out.

By UniProt entry, the sequences of proteins in these tests, tags left out. Where a name states a change or a piece, a line headed by the entry shows the natural chain unless it says otherwise.
UniProt O43172: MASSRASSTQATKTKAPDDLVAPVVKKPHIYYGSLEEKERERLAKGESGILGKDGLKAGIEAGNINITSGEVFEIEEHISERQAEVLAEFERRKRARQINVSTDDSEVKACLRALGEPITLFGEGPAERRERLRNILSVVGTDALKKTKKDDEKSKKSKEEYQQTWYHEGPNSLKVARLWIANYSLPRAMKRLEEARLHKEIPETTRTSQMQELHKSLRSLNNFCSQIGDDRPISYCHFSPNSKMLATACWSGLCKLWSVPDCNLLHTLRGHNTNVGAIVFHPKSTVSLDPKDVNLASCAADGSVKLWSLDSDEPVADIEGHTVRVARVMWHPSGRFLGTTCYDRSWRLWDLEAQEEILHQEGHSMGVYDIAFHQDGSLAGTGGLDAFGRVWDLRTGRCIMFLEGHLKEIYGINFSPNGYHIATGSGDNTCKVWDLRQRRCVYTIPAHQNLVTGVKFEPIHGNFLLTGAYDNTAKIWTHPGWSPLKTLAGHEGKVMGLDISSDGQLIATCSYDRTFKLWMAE
UniProt P14314: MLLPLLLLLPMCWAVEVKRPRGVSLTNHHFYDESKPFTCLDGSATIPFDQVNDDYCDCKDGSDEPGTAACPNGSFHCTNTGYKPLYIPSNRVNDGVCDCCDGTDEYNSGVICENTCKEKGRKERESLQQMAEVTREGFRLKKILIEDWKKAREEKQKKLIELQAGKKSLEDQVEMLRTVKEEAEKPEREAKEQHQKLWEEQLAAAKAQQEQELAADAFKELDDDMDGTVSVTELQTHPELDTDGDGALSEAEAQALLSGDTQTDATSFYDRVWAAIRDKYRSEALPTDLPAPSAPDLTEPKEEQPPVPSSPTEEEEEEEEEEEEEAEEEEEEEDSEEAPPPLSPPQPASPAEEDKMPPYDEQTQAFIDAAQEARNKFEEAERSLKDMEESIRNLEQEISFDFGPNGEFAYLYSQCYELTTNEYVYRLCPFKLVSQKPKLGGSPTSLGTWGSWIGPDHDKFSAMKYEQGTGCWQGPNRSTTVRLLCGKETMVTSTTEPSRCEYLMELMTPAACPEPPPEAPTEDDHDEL
UniProt Q8TAE6: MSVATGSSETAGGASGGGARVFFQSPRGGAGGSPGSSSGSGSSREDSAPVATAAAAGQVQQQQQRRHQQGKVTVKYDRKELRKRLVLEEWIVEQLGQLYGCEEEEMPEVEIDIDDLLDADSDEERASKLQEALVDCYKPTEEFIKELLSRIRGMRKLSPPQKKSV
UniProt Q9H875: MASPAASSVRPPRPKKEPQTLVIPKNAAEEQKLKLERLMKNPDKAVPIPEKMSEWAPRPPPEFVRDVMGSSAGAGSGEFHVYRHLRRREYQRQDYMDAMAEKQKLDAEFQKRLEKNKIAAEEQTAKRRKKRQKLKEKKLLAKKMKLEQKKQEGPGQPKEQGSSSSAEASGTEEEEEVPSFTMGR
UniProt O60927: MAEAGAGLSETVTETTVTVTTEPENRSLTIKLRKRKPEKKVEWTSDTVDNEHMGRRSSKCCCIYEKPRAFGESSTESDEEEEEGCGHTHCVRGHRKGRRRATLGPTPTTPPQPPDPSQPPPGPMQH
UniProt Q9Y520: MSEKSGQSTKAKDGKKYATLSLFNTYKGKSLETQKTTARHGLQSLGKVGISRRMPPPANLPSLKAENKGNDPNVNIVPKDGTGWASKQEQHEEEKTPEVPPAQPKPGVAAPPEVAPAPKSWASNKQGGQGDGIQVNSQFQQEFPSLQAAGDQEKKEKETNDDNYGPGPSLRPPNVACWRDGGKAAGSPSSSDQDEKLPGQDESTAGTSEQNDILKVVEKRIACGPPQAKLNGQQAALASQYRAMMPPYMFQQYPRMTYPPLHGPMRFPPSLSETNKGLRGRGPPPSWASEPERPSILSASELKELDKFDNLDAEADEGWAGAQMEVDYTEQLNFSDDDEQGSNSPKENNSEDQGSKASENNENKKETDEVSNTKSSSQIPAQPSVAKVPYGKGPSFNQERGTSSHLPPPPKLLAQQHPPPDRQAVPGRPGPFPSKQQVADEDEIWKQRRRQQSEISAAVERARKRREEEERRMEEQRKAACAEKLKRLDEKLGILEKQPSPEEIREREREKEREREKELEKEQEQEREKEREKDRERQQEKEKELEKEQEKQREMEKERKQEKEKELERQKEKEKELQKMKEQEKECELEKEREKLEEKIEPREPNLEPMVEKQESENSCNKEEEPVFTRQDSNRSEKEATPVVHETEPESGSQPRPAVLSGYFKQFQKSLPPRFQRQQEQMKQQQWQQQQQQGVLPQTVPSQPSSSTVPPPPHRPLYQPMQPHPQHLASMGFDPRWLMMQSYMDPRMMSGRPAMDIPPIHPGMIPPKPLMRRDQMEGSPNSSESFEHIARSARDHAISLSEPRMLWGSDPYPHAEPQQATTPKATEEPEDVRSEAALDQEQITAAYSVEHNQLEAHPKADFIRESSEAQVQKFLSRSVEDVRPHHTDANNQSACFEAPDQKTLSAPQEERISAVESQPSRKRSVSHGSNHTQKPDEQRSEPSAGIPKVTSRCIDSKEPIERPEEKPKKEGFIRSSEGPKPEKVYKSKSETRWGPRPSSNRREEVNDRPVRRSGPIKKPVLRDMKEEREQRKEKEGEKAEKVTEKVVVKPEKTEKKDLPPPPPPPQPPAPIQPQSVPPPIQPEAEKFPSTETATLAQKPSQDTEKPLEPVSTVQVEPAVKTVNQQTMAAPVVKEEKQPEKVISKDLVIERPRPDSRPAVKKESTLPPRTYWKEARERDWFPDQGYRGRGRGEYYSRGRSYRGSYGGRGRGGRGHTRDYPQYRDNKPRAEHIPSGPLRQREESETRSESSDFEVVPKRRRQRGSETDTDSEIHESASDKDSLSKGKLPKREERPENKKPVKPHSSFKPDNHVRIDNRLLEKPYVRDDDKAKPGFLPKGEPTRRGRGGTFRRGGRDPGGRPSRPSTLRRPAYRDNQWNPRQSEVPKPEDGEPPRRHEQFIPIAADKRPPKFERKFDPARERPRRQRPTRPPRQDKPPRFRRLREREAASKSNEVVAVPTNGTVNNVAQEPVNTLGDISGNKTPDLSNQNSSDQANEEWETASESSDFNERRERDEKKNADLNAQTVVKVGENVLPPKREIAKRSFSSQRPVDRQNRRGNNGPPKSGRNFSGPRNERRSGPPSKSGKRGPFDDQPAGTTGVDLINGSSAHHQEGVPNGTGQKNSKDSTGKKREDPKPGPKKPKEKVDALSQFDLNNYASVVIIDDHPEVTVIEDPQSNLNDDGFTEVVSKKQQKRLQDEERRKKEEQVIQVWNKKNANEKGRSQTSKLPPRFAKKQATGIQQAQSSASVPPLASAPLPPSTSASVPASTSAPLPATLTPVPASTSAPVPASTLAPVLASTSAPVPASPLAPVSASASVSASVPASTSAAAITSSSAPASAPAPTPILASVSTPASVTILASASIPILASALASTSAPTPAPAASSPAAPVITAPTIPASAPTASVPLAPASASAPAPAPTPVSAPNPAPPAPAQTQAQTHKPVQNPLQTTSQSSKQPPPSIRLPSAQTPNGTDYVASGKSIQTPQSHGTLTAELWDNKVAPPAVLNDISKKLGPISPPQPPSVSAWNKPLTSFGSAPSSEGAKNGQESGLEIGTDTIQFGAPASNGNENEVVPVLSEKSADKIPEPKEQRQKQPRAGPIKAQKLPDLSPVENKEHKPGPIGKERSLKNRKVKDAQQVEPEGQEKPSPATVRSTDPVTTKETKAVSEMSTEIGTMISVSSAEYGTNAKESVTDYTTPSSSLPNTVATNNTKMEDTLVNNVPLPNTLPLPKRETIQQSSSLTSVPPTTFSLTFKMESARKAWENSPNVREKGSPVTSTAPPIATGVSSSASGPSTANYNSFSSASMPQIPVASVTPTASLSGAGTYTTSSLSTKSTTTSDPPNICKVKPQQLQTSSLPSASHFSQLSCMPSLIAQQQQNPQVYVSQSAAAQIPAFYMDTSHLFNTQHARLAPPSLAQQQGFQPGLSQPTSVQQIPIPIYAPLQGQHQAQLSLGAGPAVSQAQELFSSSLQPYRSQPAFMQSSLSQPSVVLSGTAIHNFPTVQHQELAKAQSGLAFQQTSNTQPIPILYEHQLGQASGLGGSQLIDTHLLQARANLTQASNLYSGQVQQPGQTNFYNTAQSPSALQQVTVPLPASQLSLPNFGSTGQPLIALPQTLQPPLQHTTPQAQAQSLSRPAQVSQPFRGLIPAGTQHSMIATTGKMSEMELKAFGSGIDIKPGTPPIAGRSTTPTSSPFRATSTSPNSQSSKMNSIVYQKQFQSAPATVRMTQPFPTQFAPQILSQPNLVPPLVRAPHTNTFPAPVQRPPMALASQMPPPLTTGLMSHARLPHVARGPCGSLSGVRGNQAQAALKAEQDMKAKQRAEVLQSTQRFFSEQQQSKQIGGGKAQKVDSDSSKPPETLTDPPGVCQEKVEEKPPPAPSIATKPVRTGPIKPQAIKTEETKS
UniProt Q6NYC8: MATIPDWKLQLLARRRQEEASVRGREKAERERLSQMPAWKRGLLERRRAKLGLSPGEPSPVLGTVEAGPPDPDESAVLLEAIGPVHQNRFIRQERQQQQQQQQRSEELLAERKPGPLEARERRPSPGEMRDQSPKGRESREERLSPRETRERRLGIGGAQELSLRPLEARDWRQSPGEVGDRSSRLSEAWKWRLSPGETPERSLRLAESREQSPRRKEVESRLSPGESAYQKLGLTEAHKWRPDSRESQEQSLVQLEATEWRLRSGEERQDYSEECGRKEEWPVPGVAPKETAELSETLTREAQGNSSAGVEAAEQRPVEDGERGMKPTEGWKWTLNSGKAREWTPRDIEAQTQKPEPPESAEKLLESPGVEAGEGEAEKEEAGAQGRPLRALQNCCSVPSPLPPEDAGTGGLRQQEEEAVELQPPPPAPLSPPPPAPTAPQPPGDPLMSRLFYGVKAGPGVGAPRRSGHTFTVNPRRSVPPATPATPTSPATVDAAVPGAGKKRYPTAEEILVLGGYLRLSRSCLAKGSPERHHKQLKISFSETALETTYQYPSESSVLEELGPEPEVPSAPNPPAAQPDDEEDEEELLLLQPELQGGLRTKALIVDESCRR
UniProt O14744, whole entry, looked up: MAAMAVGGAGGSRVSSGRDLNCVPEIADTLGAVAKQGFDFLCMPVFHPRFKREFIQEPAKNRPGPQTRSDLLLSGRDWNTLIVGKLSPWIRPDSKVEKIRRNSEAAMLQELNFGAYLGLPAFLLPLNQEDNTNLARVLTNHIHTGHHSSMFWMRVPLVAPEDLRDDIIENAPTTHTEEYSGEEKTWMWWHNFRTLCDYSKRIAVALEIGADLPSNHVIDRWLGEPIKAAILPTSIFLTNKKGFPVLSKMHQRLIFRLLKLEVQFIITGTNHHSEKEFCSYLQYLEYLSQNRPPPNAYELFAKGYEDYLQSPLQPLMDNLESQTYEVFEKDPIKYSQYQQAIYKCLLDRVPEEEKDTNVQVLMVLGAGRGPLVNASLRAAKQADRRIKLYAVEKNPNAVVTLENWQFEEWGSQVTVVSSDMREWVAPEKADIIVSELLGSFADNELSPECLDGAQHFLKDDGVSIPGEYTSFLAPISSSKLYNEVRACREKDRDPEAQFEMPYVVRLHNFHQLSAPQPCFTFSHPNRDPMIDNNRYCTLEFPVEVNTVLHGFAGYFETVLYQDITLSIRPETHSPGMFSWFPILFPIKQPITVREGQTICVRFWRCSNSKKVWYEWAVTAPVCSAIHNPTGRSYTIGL
UniProt Q06830: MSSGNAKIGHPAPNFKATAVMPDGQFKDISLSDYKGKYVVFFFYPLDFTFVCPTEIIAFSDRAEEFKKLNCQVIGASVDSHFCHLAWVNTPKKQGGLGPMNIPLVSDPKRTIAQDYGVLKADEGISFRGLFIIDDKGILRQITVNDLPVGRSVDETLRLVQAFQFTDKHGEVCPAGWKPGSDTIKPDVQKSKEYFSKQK
UniProt Q96BP3: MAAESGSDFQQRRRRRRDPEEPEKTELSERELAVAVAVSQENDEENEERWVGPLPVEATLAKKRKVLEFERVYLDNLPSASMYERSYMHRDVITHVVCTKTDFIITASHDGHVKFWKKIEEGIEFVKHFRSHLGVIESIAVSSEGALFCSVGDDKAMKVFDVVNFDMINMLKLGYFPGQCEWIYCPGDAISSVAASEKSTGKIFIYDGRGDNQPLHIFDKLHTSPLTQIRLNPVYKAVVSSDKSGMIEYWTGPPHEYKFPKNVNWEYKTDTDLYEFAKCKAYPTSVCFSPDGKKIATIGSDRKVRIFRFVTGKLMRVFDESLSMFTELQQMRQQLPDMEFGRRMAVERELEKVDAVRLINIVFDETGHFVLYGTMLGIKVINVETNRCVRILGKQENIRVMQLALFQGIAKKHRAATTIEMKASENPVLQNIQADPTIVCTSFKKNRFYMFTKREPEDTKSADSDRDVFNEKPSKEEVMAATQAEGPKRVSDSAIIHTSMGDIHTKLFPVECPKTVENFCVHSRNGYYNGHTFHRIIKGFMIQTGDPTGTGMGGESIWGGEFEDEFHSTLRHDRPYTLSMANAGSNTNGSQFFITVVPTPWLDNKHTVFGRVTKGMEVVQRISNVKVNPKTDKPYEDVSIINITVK

How the values were obtained:
Assay in all cases: log2 fold change, soluble protein after heating vs DMSO (PISA); higher = thermal stabilisation; K562 cells, 10 uM, 30 min; active = over 0.2 and 3.5 SD of the protein, either way, in both replicates (recomputed)
bafetinib = compound: Cc1ccc(NC(=O)c2ccc(CN3CC[C@H](N(C)C)C3)c(C(F)(F)F)c2)cc1Nc1nccc(-c2cncnc2)n1 [bafetinib]
Outline: (§1)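 Thermal stability values are relative to control samples and come from duplicates. They are expressed as log2 fold changes. For measurement, K562 cells (2×10^6 cells/mL) received 10 μM compound for 30 min, and aliquots were heated for 3 min over 48°C-58°C, pooled, and extracted at 4°C in PBS with 0.5% NP-40. Soluble protein, the supernatant after 21,000xg for 90 min, was quantified by TMTpro 16plex LC-MS/MS with equalised channel sums.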

[1] = compound: Cc1cccc(CC(=O)N2CCc3c2ccc(-c2cn(C)c4ncnc(N)c24)c3F)n1
Outline: as §1

nilotinib = compound: Cc1cn(-c2cc(NC(=O)c3ccc(C)c(Nc4nccc(-c5cccnc5)n4)c3)cc(C(F)(F)F)c2)cn1 [nilotinib]
Outline: as §1

[2] = compound: Cc1nc(Nc2n[nH]c3c2CN(C(=O)N[C@H](CN(C)C)c2ccccc2)C3(C)C)c2sccc2n1
Outline: as §1

dasatinib = compound: Cc1nc(Nc2ncc(C(=O)Nc3c(C)cccc3Cl)s2)cc(N2CCN(CCO)CC2)n1 [dasatinib]
Outline: as §1

[3] = compound: Cc1ncc(-c2ccnc(Nc3ccc(S(C)(=O)=O)cc3)n2)n1C(C)C
Outline: as §1

[4] = compound: Cn1cc(-c2ccc3c(c2)CCN3C(=O)Cc2cccc(C(F)(F)F)c2)c2c(N)ncnc21
Outline: as §1

[5] = compound: Cn1cc(-c2ccc3nnc(C(F)(F)c4ccc5ncccc5c4)n3n2)cn1
Outline: as §1

tipifarnib = compound: Cn1cncc1[C@@](N)(c1ccc(Cl)cc1)c1ccc2c(c1)c(-c1cccc(Cl)c1)cc(=O)n2C [tipifarnib]
Outline: as §1

mubritinib = compound: FC(F)(F)c1ccc(/C=C/c2nc(COc3ccc(CCCCn4ccnn4)cc3)co2)cc1 [mubritinib]
Outline: as §1

[6] = compound: NC(=O)Nc1cc(-c2cccc(F)c2)sc1C(=O)N[C@H]1CCCNC1
Outline: as §1

[7] = compound: NC(=O)c1cnc(N[C@@H]2CCCC[C@@H]2N)nc1Nc1cccc(-n2nccn2)c1
Outline: as §1

[8] = compound: NC1(c2ccc(-c3nc4ccn5c(=O)[nH]nc5c4cc3-c3ccccc3)cc2)CCC1
Outline: as §1

[9] = compound: NCC(=O)Nc1ccc(-n2nc(C(F)(F)F)cc2-c2ccc3c(ccc4ccccc43)c2)cc1
Outline: as §1

entinostat = compound: Nc1ccccc1NC(=O)c1ccc(CNC(=O)OCc2cccnc2)cc1 [entinostat]
Outline: as §1

vorinostat = compound: O=C(CCCCCCC(=O)Nc1ccccc1)NO [vorinostat]
Outline: as §1

citarinostat = compound: O=C(CCCCCCNC(=O)c1cnc(N(c2ccccc2)c2ccccc2Cl)nc1)NO [citarinostat]
Outline: as §1

silmitasertib = compound: O=C(O)c1ccc2c(c1)nc(Nc1cccc(Cl)c1)c1ccncc12 [silmitasertib]
Outline: as §1

[10] = compound: O=C1NC(=O)C(c2cnc3ccccn23)=C1c1cn2c3c(cc(F)cc13)CN(C(=O)N1CCCCC1)CC2
Outline: as §1

[11] = compound: c1cc(OCCN2CCCCC2)cc(-c2n[nH]c3ccc(-c4nnc[nH]4)cc23)c1
Outline: as §1

Row | Target | log2 fold change (bafetinib) | log2 fold change [1] | log2 fold change (nilotinib) | log2 fold change [2] | log2 fold change (dasatinib) | log2 fold change [3] | log2 fold change [4] | log2 fold change [5] | log2 fold change (tipifarnib) | log2 fold change (mubritinib) | log2 fold change [6] | log2 fold change [7] | log2 fold change [8] | log2 fold change [9] | log2 fold change (entinostat) | log2 fold change (vorinostat) | log2 fold change (citarinostat) | log2 fold change (silmitasertib) | log2 fold change [10] | log2 fold change [11]
1 | PRPF4 (UniProt O43172) | inactive: 0.004 | inactive: 0.049 | inactive: 0.009 | inactive: -0.098 | inactive: -0.078 | inactive: -0.103 | inactive: 0.015 | inactive: -0.008 | inactive: -0.028 | inactive: 0.029 | inactive: 0.001 | inactive: -0.035 | inactive: -0.073 | inactive: -0.009 | inactive: 0.047 | inactive: 0.027 | inactive: 0.046 | inactive: 0.006 | inactive: -0.065 | inactive: -0.065
2 | PPP4R3B (UniProt Q5MIZ7) | inactive: -0.054 | inactive: 0.116 | inactive: -0.032 | inactive: -0.006 | inactive: -0.03 | inactive: -0.013 | inactive: 0.037 | inactive: 0.054 | inactive: -0.041 | inactive: 0.006 | inactive: -0.068 | inactive: -0.082 | inactive: -0.069 | inactive: -0.079 | inactive: 0.047 | inactive: 0.089 | inactive: 0.086 | inactive: 0.077 | inactive: -0.1 | inactive: 0.087
3 | PPT2 isoform 3 (UniProt Q9UMR5) | active: -0.301 | inactive: -0.013 | inactive: 0.031 | inactive: 0.013 | inactive: 0.055 | inactive: -0.045 | inactive: 0.07 | inactive: 0.037 | inactive: 0.013 | inactive: 0.034 | inactive: 0.035 | inactive: 0.008 | inactive: -0.15 | inactive: 0.017 | inactive: 0.02 | inactive: 0.063 | inactive: 0.015 | inactive: 0.018 | inactive: 0.029 | inactive: 0.034
4 | PRKCSH (UniProt P14314) | inactive: 0.017 | inactive: -0.057 | inactive: -0.006 | inactive: -0.012 | inactive: -0.005 | inactive: -0.024 | inactive: -0.005 | inactive: -0.033 | inactive: -0.01 | inactive: -0.03 | inactive: 0.039 | inactive: 0.031 | inactive: -0.001 | inactive: 0.026 | inactive: -0.008 | inactive: -0.021 | inactive: 0.008 | inactive: -0.017 | inactive: -0.032 | inactive: 0.003
5 | PPP1R14C (UniProt Q8TAE6) | inactive: 0.022 | inactive: -0.153 | inactive: 0.028 | inactive: 0.077 | inactive: 0.174 | inactive: -0.047 | inactive: -0.071 | inactive: -0.246 | inactive: -0.008 | inactive: 0 | inactive: -0.185 | inactive: -0.11 | inactive: 0.198 | inactive: 0.05 | inactive: -0.196 | inactive: 0.131 | inactive: 0.022 | inactive: -0.158 | inactive: -0.217 | inactive: 0.053
6 | PRKRIP1 (UniProt Q9H875) | inactive: 0.074 | inactive: -0.142 | inactive: 0.008 | inactive: 0.133 | inactive: 0.121 | inactive: 0.179 | inactive: -0.009 | inactive: 0.021 | inactive: 0.037 | inactive: 0.004 | inactive: 0.102 | inactive: 0.036 | inactive: 0.087 | inactive: 0.01 | inactive: -0.009 | inactive: -0.083 | inactive: 0.001 | inactive: 0.008 | inactive: 0.124 | inactive: -0.005
7 | PRKAR2B (UniProt P31323) | inactive: -0.022 | inactive: 0.133 | inactive: 0.012 | active: -1.23 | inactive: -0.078 | inactive: -0.16 | inactive: 0.022 | inactive: -0.07 | inactive: -0.103 | inactive: 0.189 | active: -0.964 | inactive: -0.152 | inactive: -0.223 | inactive: 0.016 | inactive: 0.027 | inactive: 0.112 | inactive: 0.078 | inactive: 0.008 | inactive: -0.003 | inactive: -0.013
8 | PPP1R11 (UniProt O60927) | inactive: -0.072 | inactive: -0.008 | inactive: 0 | inactive: -0.029 | inactive: 0.127 | inactive: 0.033 | inactive: 0.028 | inactive: 0.009 | inactive: 0.024 | inactive: 0.019 | inactive: -0.001 | inactive: 0 | inactive: 0.012 | inactive: -0.02 | inactive: -0.085 | inactive: 0.01 | inactive: 0.038 | inactive: 0.054 | inactive: -0.006 | inactive: 0.001
9 | PRRC2C isoform 7 (UniProt Q9Y520) | inactive: 0.107 | inactive: -0.01 | inactive: 0.02 | inactive: 0.097 | inactive: 0.151 | inactive: -0.003 | inactive: -0.176 | inactive: -0.102 | inactive: 0.109 | inactive: -0.073 | inactive: 0.039 | inactive: 0.028 | inactive: 0.209 | inactive: 0.071 | inactive: -0.062 | inactive: 0 | inactive: -0.057 | inactive: 0.095 | inactive: 0.119 | inactive: -0.113
10 | PPP1R18 (UniProt Q6NYC8) | inactive: -0.067 | inactive: -0.009 | inactive: -0.05 | inactive: -0.025 | inactive: 0.013 | inactive: -0.063 | inactive: 0.005 | inactive: 0.003 | inactive: -0.008 | inactive: 0.046 | inactive: -0.015 | inactive: -0.034 | inactive: -0.02 | inactive: -0.045 | inactive: -0.025 | inactive: -0.009 | inactive: 0.009 | inactive: 0.026 | inactive: -0.225 | inactive: -0.054
11 | PRMT5 (UniProt O14744) | inactive: 0.01 | inactive: -0.001 | inactive: -0.015 | inactive: 0.047 | inactive: 0.035 | inactive: -0.014 | inactive: 0.021 | inactive: 0.008 | inactive: -0.006 | inactive: 0.033 | inactive: -0.008 | inactive: -0.027 | inactive: -0.041 | inactive: -0.024 | inactive: 0.025 | inactive: 0.012 | inactive: 0.009 | inactive: -0.049 | inactive: -0.023 | inactive: 0.002
12 | PRPF4B (UniProt Q13523) | inactive: 0.188 | inactive: -0.096 | inactive: 0.153 | active: -0.626 | inactive: 0.081 | inactive: -0.163 | inactive: 0.005 | inactive: -0.056 | inactive: 0.117 | inactive: 0.069 | inactive: -0.057 | inactive: -0.075 | inactive: -0.022 | inactive: -0.065 | inactive: -0.008 | inactive: 0.025 | inactive: 0.033 | inactive: 0.01 | inactive: 0.055 | active: -0.328
13 | PRRC2A (UniProt P48634) | inactive: 0.099 | inactive: -0.024 | inactive: 0.049 | inactive: 0.043 | inactive: 0.085 | inactive: -0.028 | inactive: -0.088 | inactive: -0.032 | inactive: 0.101 | inactive: -0.068 | inactive: 0.02 | inactive: 0.054 | inactive: 0.182 | inactive: 0.066 | inactive: -0.074 | inactive: -0.015 | inactive: -0.081 | inactive: 0.085 | inactive: 0.104 | inactive: -0.131
14 | PRDX1 (UniProt Q06830) | inactive: -0.012 | inactive: 0.008 | inactive: -0.005 | inactive: -0.004 | inactive: 0.004 | inactive: -0.012 | inactive: 0.052 | inactive: 0.019 | inactive: 0.04 | inactive: 0.044 | inactive: -0.011 | inactive: -0.023 | inactive: -0.036 | inactive: -0.014 | inactive: -0.009 | inactive: 0.002 | inactive: 0.024 | inactive: -0.017 | inactive: -0.047 | inactive: -0.017
15 | PPP2R5C isoform 4 (UniProt Q13362) | inactive: -0.032 | inactive: -0.019 | inactive: -0.05 | inactive: -0.025 | inactive: -0.058 | inactive: -0.008 | inactive: 0.037 | inactive: 0.052 | inactive: -0.093 | inactive: 0.095 | inactive: -0.035 | inactive: 0.079 | inactive: -0.064 | inactive: -0.065 | inactive: 0.012 | inactive: -0.033 | inactive: 0.055 | inactive: -0.015 | inactive: -0.022 | inactive: 0.058
16 | PPWD1 (UniProt Q96BP3) | inactive: -0.021 | inactive: 0.01 | inactive: -0.041 | inactive: -0.01 | inactive: -0.115 | inactive: 0.07 | inactive: 0.057 | inactive: 0.002 | inactive: -0.004 | inactive: 0.05 | inactive: -0.062 | inactive: -0.074 | inactive: -0.112 | inactive: -0.047 | inactive: 0.035 | inactive: 0.009 | inactive: 0.005 | inactive: 0.021 | inactive: -0.055 | inactive: 0.003

Looked up above:
In log2 fold change (entinostat), PRRC2A (UniProt P48634) shows inactive: -0.074
In log2 fold change (citarinostat), PPP1R11 (UniProt O60927) shows inactive: 0.038
